Percent effect of library compounds

Sequences of proteins named here, by UniProt entry; tags and fusion partners are left off.
UniProt P9WNZ1, whole entry: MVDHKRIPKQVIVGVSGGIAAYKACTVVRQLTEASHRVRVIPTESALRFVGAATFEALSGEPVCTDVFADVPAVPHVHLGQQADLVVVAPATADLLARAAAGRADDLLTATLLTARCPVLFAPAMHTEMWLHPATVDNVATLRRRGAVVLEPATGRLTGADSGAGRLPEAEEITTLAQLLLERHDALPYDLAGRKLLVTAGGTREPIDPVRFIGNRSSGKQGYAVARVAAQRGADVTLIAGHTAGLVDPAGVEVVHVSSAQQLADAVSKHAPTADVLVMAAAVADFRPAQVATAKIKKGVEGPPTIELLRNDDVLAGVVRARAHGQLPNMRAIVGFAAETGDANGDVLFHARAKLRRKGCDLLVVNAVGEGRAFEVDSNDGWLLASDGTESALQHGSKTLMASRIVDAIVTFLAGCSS
UniProt P9WFT3, whole entry: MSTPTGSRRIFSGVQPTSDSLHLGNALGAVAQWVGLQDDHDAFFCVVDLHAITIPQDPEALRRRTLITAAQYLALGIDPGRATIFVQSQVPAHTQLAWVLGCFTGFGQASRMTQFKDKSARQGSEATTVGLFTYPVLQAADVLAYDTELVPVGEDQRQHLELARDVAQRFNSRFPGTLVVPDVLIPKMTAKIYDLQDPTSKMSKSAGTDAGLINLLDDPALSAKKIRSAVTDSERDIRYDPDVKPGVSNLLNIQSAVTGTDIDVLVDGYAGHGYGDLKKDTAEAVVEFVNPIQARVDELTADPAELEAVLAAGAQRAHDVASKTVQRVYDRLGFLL

Data taken from ChEMBL document CHEMBL3988442, “University of Dundee, Small-Polar-MMV Screening Library” (2021).

A: 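Enzyme assay of CoaBC with a phosphate dye (Biomol Green) read at 650 nm. Target: Coenzyme A biosynthesis protein CoaBC, Mycobacterium tuberculosis (UniProt P9WNZ1). Concentration: 30 µM. Higher reads as stronger inhibition, judged from the few compounds that gave an IC50. Most strong results did not repeat in a second test. Size under these conditions: about 67,000 compounds, about 40 of them at 50% or above in at least one test.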
B: 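Tryptophan-tRNA ligase, Mycobacterium tuberculosis (UniProt P9WFT3). Enzyme assay of tryptophanyl-tRNA synthetase; the read-out is not stated. Tested at 10 µM. Direction is not recorded; retested compounds ran higher, which suggests that high means inhibition. About 65,000 compounds were tested under these conditions; 0.098% (about 64) showed 50% or more at least once.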

Each number is a percent effect as filed. The controls that fix the scale are not given in the record; negative values are as filed. This is an unselected part of the compounds tested. Two or more numbers in one place are separate tests of the same structure; such repeats can differ widely. A dash means the value is not listed here; it may have been measured.

structure | A | B
COCCC1(C(=O)O)CCCN(Cc2ccccc2OCCO)C1 (stereo not given) | -2.213 | -5.493
COCCOC(=O)N1C[C@H]2CC[C@@H]1CN(C1Cc3ccccc3C1)C2 | 9.442 | 10.64
CC1(Cc2ccc3c(c2)OCO3)CCCN(S(=O)(=O)N2CCCC2)C1 (stereo not given) | -10.68 | -3.64
CN1CCOC(C(=O)N2CCC3(CCCCC3)C2)C1 (stereo not given) | 10.87 | 1.06
Cc1nc(N2CCOCC2)ncc1-c1cc(O)nc(N2CCCC2)n1 | 3.926 | 1.684
CC(=O)N1CCC2(CC1)CN(C(=O)C1CC1)c1ccc(F)cc12 | -3.053 | 5.416
CC(C)(C)c1cc(C(=O)NCCn2nc3ccccn3c2=O)[nH]n1 | 16.21 | 0.8244
Cc1cnc(C)c(-c2cc(O)c3c(c2)CN(Cc2nccs2)CCO3)n1 | -2.609 | 2.026
CCN1CCN(c2ccc(CNC(=O)c3ccccc3F)cn2)CC1 | 2.611 | -4.708
CC(=O)N1C[C@H](NS(=O)(=O)Cc2cccc(Cl)c2)[C@@H](C(C)C)C1 | 10.29 | 0.08157
O=C(NCc1ccco1)[C@H]1COC[C@H]2CN(Cc3ccoc3)C[C@H]21 | -2 | 11.88
Cc1ccc(N2C[C@@H]3CN(Cc4ccsc4)CCO[C@@H]3C2)nn1 | -17.01 | 5.672
NC(=O)NC1CCN(Cc2ccc(Br)c(F)c2)CC1 | 0.8589 | -2.385
CSCCC(=O)N1CCC(Oc2cc(C)ccc2F)(C(=O)O)CC1 | 2.11 | -4.171
CCCc1nccn1-c1cccc(CN2CCCC2)c1 | -4.321 | -2.113
CSCC(=O)NC1CC(=O)N(CCc2ccccc2)C1 (stereo not given) | 14.54 | 4.812
Cc1ccc(CN2C(=O)CC[C@]23CC[C@@H](NCC2CCOC2)CC3)cc1 (stereo not given in full) | -0.2545 | -2.991
c1ccn2cc(CN3CCCC(c4ccn[nH]4)C3)nc2c1 (stereo not given) | - | 7.946
COc1ccc(CN2C[C@@H](F)[C@@H](OCc3nc4cnccc4[nH]3)C2)cn1 | 10.81 | -1.907
Cn1cc(-c2nc(C3CCN(CC4CC4)CC3)cc3c2ncn3C)cn1 | - | -0.4845
Cc1noc(C)c1CCC(=O)N1CCCN(Cc2cccs2)CC1 | 5.45 | 1.569
O=C(NCCC1CCCO1)c1ccccc1N1CCOCC1 (stereo not given) | 3.656 | 0.4112
O=C(Nc1nccs1)NC1CCN(Cc2ccccn2)CC1 | 7.632 | 4.813
CC(C(=O)N1CCN(Cc2ccc(C#N)cc2)CC1)n1ccnc1 (stereo not given) | 4.436 | -10.99
O=C(NCCNc1cc(N2CCCC2)ncn1)c1cnccn1 | -6.4 | -4.383
CCCOCC(=O)N1CCc2c(cccc2S(=O)(=O)N2CCOCC2)C1 | 8.015 | 2.703
c1cnc(NC[C@H]2OC[C@@H]3CCN(Cc4ccsc4)C[C@@H]32)nc1 | 4.069 | -2.216
COCCNC(=O)C1CN(C(N)=O)Cc2ccnn2C1 (stereo not given) | -1.11 | -6.294
O=C(c1cnccn1)N1CCO[C@H]2[C@H](OCc3cccnc3)CC[C@@H]21 | 6.189 | 0.4882
COCC1CN(Cc2c(C)noc2C)Cc2ccnn2C1 (stereo not given) | 3.807 | -3.045
CCC(CC)(CC(=O)OC)NC(=O)Nc1nnc(-c2ccccn2)s1 | 6.409 | 18.55
COc1ccc(-n2c(SC)nc(O)c(Cc3ccccc3)c2=O)cc1 | 18.93 | -3.765
Cc1ccc2c(c1)C1(CCN(C(N)=O)CC1)CN2CC1CC1 | 3.094 | -
CC(C)n1cc(C(=O)NCCCn2ccnc2)c2n[nH]c(=O)c-2c1 | -1.453 | 1.455
CCc1ccccc1-n1nnc(C(=O)O)c1-c1ccccn1 | 7.152 | -2.225
O=C(CCn1ccc2cc(Br)ccc21)/N=c1\[nH]nc(C2CCCO2)s1 (stereo not given) | -1.58 | -3.215
Nc1ncncc1-c1noc([C@@H]2CCCN2CCCc2ccccc2)n1 | -1.545 | -1.897
CC(C)N1CCC(Cc2cncc(-c3cccc(C(=O)O)c3)n2)CC1 | 2.179 | -
Cc1cc(CNC(=O)CCCN2CCCCC2)n(C)n1 | 5.16 | 2.763
CC(=O)N1CC2(CCN(C(=O)CO)CC2)c2cc(C)ccc21 | -10.79 | -0.9017
Cn1nc2c(cc1=O)CN(Cc1coc(-c3cccs3)n1)CC2 | 5.575 | 7.277
CN(Cc1noc2c1CCCC2)C(=O)C1CCOc2ccccc2C1 (stereo not given) | 3.106 | -2.46
CC(=O)c1c(C)cc(C)c(Cn2ccnc2S(C)(=O)=O)c1C | 1.899 | -1.48
Cc1ccc(Oc2cc(F)ccc2O[C@@H]2CCC[C@@H](N)[C@H]2O)cc1 | -1.946 | -5.739
CCOCCCn1c(NC(=O)c2cnc(C)cn2)nc2ccccc21 | 4.301 | -5.076
Cn1c(C(F)(F)F)nn(CCNC(=O)NCc2ccccc2)c1=O | 5.33 | 3.493
Cc1nc2n(n1)CC(NCc1nc(-c3ccccn3)no1)CC2 (stereo not given) | 10.09 | -0.5806
Cc1cnc(N2CCC3(CCCCN3C)C2)nc1 (stereo not given) | 2.036 | -2.991
CCOc1cccc(CNC(C)c2ccc(-n3ccnc3)cc2)c1O (stereo not given) | -2.233 | -7.424
O=C(c1ccc(-c2ccccc2)[nH]c1=O)N1CCN(C2CC2)CC1 | 14.06 | -0.7282
N#Cc1cc(Cn2cnc(C3CCC3)cc2=O)ccc1F | 0.8906 | 0.4454
CN(CC(N)=O)CC1(c2ccc(Br)cc2)CC1 | 8.439 | 3.374
O=C(c1ncoc1C1CCCO1)N1CCC2(CCCCC2)CC1 (stereo not given) | - | 1.135
CN(C)[C@H]1COC[C@@H]2CN(Cc3ccc4c(c3)OCO4)C[C@@H]21 | 2.917 | -1.481
O=C(C1CCCC1)N1CC[C@]2(O)CCN(Cc3ncccn3)C[C@@H]2C1 | 12.74 | 2.687
Cc1ccc(OC2(C(=O)O)CCN(C(=O)c3cc(C)oc3C)CC2)cn1 | 11.51 | 3.402
CC1=Nc2c(c(=O)[nH]n2C(C)C)C(c2ccsc2)S1 (stereo not given) | -11.84 & 1.768 | -1.988 & 1.19
O=S1(=O)CCC(N(CCc2ccc3c(c2)CCO3)C2CC2)C1 (stereo not given) | 1.86 | -7.022
CCNC(=O)CN(CC)S(=O)(=O)c1c(Br)cc2[nH]c(=O)oc2c1Cl | 16.09 | -2.408
CC(C)c1nc(/C=C/c2cnn(-c3ccc(Cl)cc3)c2)ncc1C(=O)O | 3.639 | 0.3943
CC(C)C1=NOC(c2nc(Cc3ccccc3)no2)C1 (stereo not given) | -0.7453 | -2.312
Cc1cnn(CC2CN(Cc3cccnc3)CCO2)c1 (stereo not given) | -1.161 | 0.3895
COC(=O)CN(C)Cc1cc(Br)cs1 | -2.163 | 2.673
CSc1ccccc1C(=O)N1C[C@H]2CC[C@@H]1CN(C(=O)C1CCC1)C2 | -5.055 | -1.652
CCC[C@H]1CN(S(=O)(=O)c2ccc(CC)s2)C[C@@H]1N | - | 11.2
CC(C)N1CCO[C@H]2CN(C(=O)c3ccncc3)C[C@H]21 | 8.722 | -0.382
Cc1ccc(-c2nc(CN3CCN(C(=O)C4CC4)CC3)cs2)o1 | 9.288 | -25.81
O=C1CCCCN1CSc1nnnn1-c1ccc(Cl)cc1 | -4.032 | -2.183
CCOc1ccccc1OC1CCN(Cc2ccn(C)c(=O)c2)CC1 | 2.194 | 6.524

Some entries from above, unchanged:

{"structure": "Cc1nc(N2CCOCC2)ncc1-c1cc(O)nc(N2CCCC2)n1", "A": 3.926, "B": 1.684}
{"structure": "O=C(NCCC1CCCO1)c1ccccc1N1CCOCC1", "stereo": "stereo not given", "A": 3.656, "B": 0.4112}
{"structure": "c1cnc(NC[C@H]2OC[C@@H]3CCN(Cc4ccsc4)C[C@@H]32)nc1", "A": 4.069, "B": -2.216}
{"structure": "Cc1cnc(C)c(-c2cc(O)c3c(c2)CN(Cc2nccs2)CCO3)n1", "A": -2.609, "B": 2.026}
{"structure": "Cn1cc(-c2nc(C3CCN(CC4CC4)CC3)cc3c2ncn3C)cn1", "B": -0.4845}
{"structure": "COC(=O)CN(C)Cc1cc(Br)cs1", "A": -2.163, "B": 2.673}